PubChem BioAssay AID1224830 – NIAID – 2016
In all, the deposit lists about 18,000 reagents; below is an unselected part. About 2,900 of them (16%) count as active. 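Calls are made per well; low scores hint the gene aids the LPS response, high scores that it dampens it.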 Repeated entries: four replicate wells of each siRNA pool. Reagent sequences are not shown.

Purpose: 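Host factors that control LPS-induced TNF expression in human macrophages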 (primary screen)
System: human THP-1 monocytic leukaemia cells, TNF dual-luciferase reporter clone, PMA-differentiated to macrophage-like cells
Knock-down reagent: siRNA pool against human genes, 50 nM
Time to read-out: LPS for 4 h, given about 3 days after siRNA transfection
Challenge: bacterial LPS (TLR4 ligand), 10 ng/ml
Detection: 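Ratio of firefly to renilla light, scaled to the plate median and expressed as a robust z-score per replicate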
Direction: TNF reporter robust z-score: higher = stronger TNF reporter response to LPS
Rule for the call: 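Each well counts as active if its z-score is over 2.8 or under -1.5; controls are left without a call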

| TNF reporter robust z-score | activity call | Target gene |
| --- | --- | --- |
| 0.76 | inactive | TUBE1 |
| -0.1 | inactive | TUBE1 |
| 0.08 | inactive | TUBE1 |
| 1.15 | inactive | TUBE1 |
| -0.29 | inactive | SEMA5A |
| -1.1 | inactive | SEMA5A |
| -0.77 | inactive | SEMA5A |
| -1 | inactive | SEMA5A |
| 0.62 | inactive | NLE1 |
| -0.18 | inactive | NLE1 |
| 0.42 | inactive | NLE1 |
| 0.57 | inactive | NLE1 |
| 0.23 | inactive | NTAN1 |
| 1.01 | inactive | NTAN1 |
| 0.25 | inactive | NTAN1 |
| 0.27 | inactive | NTAN1 |
| -0.47 | inactive | GRM5 |
| -0.58 | inactive | GRM5 |
| -0.83 | inactive | GRM5 |
| -0.39 | inactive | GRM5 |
| -0.43 | inactive | PRY |
| -0.42 | inactive | PRY |
| -0.31 | inactive | PRY |
| 0.02 | inactive | PRY |
| 1.18 | inactive | ATP5MC3 |
| 0.33 | inactive | ATP5MC3 |
| 1.11 | inactive | ATP5MC3 |
| 0.13 | inactive | ATP5MC3 |
| -0.89 | inactive | C1QTNF3 |
| -0.22 | inactive | C1QTNF3 |
| -1.44 | inactive | C1QTNF3 |
| -1.26 | inactive | C1QTNF3 |
| -1 | inactive | TAF1C |
| 0.42 | inactive | TAF1C |
| 3.75 | active | TAF1C |
| 2.29 | inactive | TAF1C |
| 3 | active | BCL2 |
| 3.01 | active | BCL2 |
| 2.8 | active | BCL2 |
| 3.76 | active | BCL2 |
| -0.15 | inactive | OR1A1 |
| 1.08 | inactive | OR1A1 |
| -0.63 | inactive | OR1A1 |
| 0.88 | inactive | OR1A1 |
| -0.19 | inactive | NPFFR2 |
| 1.55 | inactive | NPFFR2 |
| 1.43 | inactive | NPFFR2 |
| 0.77 | inactive | NPFFR2 |

Records listed so far whose target name starts with C or c:
| TNF reporter robust z-score | activity call | Target gene |
| --- | --- | --- |
| -0.89 | inactive | C1QTNF3 |
| -0.22 | inactive | C1QTNF3 |
| -1.44 | inactive | C1QTNF3 |
| -1.26 | inactive | C1QTNF3 |

The listing continues.
| TNF reporter robust z-score | activity call | Target gene |
| --- | --- | --- |
| 0.27 | inactive | NRAP |
| 0.17 | inactive | NRAP |
| -0.34 | inactive | NRAP |
| 0.79 | inactive | NRAP |
| 0.68 | inactive | RMDN1 |
| 0.54 | inactive | RMDN1 |
| 2.2 | inactive | RMDN1 |
| 4.05 | active | RMDN1 |
| 0.31 | inactive | MAP2K7 |
| 1.33 | inactive | MAP2K7 |
| 1.03 | inactive | MAP2K7 |
| -0.11 | inactive | MAP2K7 |
| -1.53 | active | CCT2 |
| -1.25 | inactive | CCT2 |
| -1.18 | inactive | CCT2 |
| 1.16 | inactive | KRIT1 |
| 4.53 | active | KRIT1 |
| -0.27 | inactive | KRIT1 |
| 0.91 | inactive | KRIT1 |
| -0.72 | inactive | NKX2-5 |
| -0.23 | inactive | NKX2-5 |
| -0.54 | inactive | NKX2-5 |
| -0.12 | inactive | NKX2-5 |
| -0.1 | inactive | EIF2A |
| 0.51 | inactive | EIF2A |
| 0.66 | inactive | EIF2A |
| 1.11 | inactive | EIF2A |
